# Out of some 350,000 compounds screened, about 6,000 (1.7%) were called active. This list was built around the results that the source calls inconclusive (neither active nor inactive); the mix of calls is not that of the screen. Rule as the data show it: active = CPE inhibition above about 20% (passing the limit was not always enough); inconclusive = no clear call, values can overlap the other calls; tested in BHK-21 cells.
# Assay: protection of cells from dengue 2 killing – plate reader, single concentration, primary screen (AID 651640);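 also: 0% = median of neutral control wells and 100% = median of positive control wells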
# Settings: DENV2-infected cells, cytopathic effect rescue, at 9.99 µM, active compounds read high
row,SMILES,CPE inhibition
1,Cc1noc(C)c1NC(=O)N(C)C[C@H]1OCCCC[C@@H](C)Oc2ccc(NS(=O)(=O)c3ccc(Cl)cc3)cc2C(=O)N([C@H](C)CO)C[C@@H]1C,inconclusive: 31.2%
2,O=S1(=O)CCOC[C@H](Cc2ccccc2)N1Cc1cccc(F)c1,active: 32.1%
3,Cc1cc(OCc2cc(C(=O)NCc3csc(C(C)C)n3)no2)cc(C)c1Cl,inconclusive: 56.2%
4,C/C=C/c1cnc2c(c1)C(=O)N([C@H](C)CO)C[C@H](C)[C@H](CN(C)S(=O)(=O)c1ccc(F)cc1)O2,inconclusive: 20.7%
5,C[C@@H]1CN([C@@H](C)CO)C(=O)c2cc(NC(=O)Nc3ccc(C(F)(F)F)cc3)ccc2O[C@@H](C)CCCCO[C@@H]1CN(C)Cc1ccccc1,active: 127%
6,N#C[C@@H]1N[C@H](CO)[C@H]1c1ccccc1,active: 38.5%
7,O=[N+]([O-])c1ccc(-c2cn(-c3ccc(Cl)cc3)cn2)cc1,inconclusive: 48.7%
8,O=C(CN1C(=O)CCSc2ccc(S(=O)(=O)N3CCCC3)cc21)Nc1ccccc1Cl,inactive: -4.99%
9,Cc1ccc(-n2ncc3c2CC(C)(C)CC3NC(=O)c2ccc[n+]([O-])c2)cc1 (stereo unspecified),inconclusive: 71.3%
10,CCC(C)Sc1cccc(-c2nc3ccc(C)cn3c2NCc2ccccc2)c1 (stereo unspecified),inconclusive: 51.8%
11,COc1cccc(OC)c1OC(=O)c1ccccc1,inconclusive: 30.9%
12,COc1ccc(-n2c(=S)[nH]c3ccccc3c2=S)cc1,inconclusive: 22.9%
13,Cc1cc(C)c(NS(=O)(=O)c2ccc3c(c2)oc(=O)n3C)c(C)c1,inconclusive: 22.8%
14,Cc1ccc(S(=O)(=O)NC(=O)C2(C)CCN2C(=O)Cc2cccs2)cc1 (stereo unspecified),active: 49.5%
15,CCC(=O)N(C)C[C@@H]1Oc2ncc(-c3ccc(C)cc3)cc2C(=O)N([C@@H](C)CO)C[C@H]1C,active: 22.2%
16,COCCNC(=O)/C(C#N)=C/c1cc(C)n(C2CCCCC2)c1C,inconclusive: 24.6%
17,Cc1ccc(S(=O)(=O)N(C)C[C@@H]2OCCCC[C@H](C)Oc3ccc(NC(=O)Nc4ccc(C(F)(F)F)cc4)cc3C(=O)N([C@H](C)CO)C[C@H]2C)cc1,inactive: 7.94%
18,COc1cc(C)ccc1OCc1cc(C(=O)N(Cc2c(C)nn(C)c2C)C2CC2)no1,inconclusive: 27.5%
19,COc1ccc(-c2[nH]ncc2CN2CCN(C(=O)c3cccs3)CC2)c(F)c1,inactive: 15.5%
20,COc1ccc(S(=O)(=O)NCC(c2cccnc2)N2CCN(C)CC2)cc1C (stereo unspecified),inconclusive: 26.2%
21,C[C@H](CO)N1C[C@H](C)[C@@H](CN(C)C(=O)Nc2ccc3c(c2)OCO3)Oc2ccc(NS(=O)(=O)c3ccccc3)cc2C1=O,inconclusive: 22.9%

# Quoted from the listing:
# COc1ccc(-c2[nH]ncc2CN2CCN(C(=O)c3cccs3)CC2)c(F)c1 – CPE inhibition: inactive: 15.5%
# COc1cccc(OC)c1OC(=O)c1ccccc1 – CPE inhibition: inconclusive: 30.9%
